Results reported in the supplement of paper PMC10849652.
The list shows a part of the results.

Sequences of proteins named here, by UniProt entry; tags and fusion partners are left off. A change or cut given only in a name is not applied to a line headed by its entry.
UniProt P40939: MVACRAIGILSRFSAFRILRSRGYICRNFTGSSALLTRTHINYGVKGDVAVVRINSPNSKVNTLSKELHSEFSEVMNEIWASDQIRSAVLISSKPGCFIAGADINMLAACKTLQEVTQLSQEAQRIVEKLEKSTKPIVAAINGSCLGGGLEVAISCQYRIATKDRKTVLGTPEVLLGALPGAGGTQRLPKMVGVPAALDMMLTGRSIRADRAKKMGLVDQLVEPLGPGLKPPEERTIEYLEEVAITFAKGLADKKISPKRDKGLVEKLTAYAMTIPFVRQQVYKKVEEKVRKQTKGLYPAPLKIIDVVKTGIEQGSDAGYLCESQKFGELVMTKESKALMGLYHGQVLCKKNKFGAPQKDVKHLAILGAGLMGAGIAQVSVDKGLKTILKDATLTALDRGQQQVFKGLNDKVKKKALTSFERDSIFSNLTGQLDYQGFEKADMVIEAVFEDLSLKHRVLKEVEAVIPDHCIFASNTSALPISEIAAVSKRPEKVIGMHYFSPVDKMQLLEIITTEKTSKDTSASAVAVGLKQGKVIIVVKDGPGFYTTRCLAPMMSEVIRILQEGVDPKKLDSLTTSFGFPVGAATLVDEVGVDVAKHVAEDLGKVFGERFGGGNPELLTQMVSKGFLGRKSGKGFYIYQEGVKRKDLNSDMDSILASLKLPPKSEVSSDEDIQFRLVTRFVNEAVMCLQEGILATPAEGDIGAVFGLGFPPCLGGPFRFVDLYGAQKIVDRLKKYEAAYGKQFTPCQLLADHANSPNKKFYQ
UniProt P53701: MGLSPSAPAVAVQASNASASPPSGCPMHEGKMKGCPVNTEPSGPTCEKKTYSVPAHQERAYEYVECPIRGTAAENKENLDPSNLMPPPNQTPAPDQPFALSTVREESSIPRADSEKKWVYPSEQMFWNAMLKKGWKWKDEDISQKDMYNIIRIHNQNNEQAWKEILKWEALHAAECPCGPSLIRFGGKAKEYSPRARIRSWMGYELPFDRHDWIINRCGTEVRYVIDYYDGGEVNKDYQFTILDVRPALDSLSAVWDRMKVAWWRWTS
UniProt Q9P2D3: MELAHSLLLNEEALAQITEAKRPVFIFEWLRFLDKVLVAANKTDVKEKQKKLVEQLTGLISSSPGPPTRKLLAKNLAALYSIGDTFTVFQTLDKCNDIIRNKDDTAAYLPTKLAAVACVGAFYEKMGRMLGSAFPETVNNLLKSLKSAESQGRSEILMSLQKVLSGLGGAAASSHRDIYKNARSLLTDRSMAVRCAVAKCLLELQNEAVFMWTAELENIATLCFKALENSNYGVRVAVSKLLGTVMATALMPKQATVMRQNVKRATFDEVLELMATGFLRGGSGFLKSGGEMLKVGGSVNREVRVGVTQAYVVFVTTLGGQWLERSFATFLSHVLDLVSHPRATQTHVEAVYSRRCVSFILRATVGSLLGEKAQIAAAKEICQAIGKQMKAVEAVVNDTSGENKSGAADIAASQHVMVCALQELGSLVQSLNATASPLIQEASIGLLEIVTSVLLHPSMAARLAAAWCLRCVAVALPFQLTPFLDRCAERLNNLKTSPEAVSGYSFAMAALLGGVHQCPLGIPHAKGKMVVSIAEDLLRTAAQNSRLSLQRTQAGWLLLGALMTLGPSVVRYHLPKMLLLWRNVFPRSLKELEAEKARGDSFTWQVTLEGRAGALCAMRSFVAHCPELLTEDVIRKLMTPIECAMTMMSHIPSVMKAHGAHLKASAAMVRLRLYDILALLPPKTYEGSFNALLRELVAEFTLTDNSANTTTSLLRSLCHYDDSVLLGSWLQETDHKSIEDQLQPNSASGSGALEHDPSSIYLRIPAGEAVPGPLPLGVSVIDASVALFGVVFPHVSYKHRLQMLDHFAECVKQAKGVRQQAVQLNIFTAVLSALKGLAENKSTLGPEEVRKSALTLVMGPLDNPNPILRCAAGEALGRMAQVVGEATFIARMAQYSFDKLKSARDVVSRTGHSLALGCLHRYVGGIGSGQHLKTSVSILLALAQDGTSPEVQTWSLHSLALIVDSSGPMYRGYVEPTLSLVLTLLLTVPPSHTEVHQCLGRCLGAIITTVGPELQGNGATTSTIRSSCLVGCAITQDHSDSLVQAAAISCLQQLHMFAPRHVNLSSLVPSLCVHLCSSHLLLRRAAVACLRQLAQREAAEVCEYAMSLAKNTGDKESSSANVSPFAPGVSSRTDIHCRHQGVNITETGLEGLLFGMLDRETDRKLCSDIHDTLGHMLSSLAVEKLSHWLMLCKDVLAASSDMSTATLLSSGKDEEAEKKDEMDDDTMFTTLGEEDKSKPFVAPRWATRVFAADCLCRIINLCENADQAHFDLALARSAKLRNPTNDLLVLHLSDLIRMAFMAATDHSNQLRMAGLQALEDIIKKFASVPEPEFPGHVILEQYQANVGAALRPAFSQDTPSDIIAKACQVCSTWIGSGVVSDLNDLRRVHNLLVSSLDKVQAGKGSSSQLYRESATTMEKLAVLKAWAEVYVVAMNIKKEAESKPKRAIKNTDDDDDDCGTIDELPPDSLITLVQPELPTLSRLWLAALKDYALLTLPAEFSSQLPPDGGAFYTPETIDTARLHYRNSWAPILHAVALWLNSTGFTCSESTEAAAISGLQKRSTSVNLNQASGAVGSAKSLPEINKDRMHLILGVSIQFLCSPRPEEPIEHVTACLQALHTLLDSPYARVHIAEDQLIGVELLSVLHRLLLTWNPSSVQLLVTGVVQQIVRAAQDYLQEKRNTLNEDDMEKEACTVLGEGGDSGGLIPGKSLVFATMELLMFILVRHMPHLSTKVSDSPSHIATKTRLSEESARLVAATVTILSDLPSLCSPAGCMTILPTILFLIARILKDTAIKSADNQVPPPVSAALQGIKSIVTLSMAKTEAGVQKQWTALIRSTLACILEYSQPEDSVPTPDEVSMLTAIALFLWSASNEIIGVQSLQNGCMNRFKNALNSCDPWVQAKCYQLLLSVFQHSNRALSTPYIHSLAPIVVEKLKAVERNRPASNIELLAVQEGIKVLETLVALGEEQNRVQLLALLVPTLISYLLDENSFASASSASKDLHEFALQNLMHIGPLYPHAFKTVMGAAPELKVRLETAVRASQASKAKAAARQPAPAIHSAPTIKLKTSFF
UniProt P78417: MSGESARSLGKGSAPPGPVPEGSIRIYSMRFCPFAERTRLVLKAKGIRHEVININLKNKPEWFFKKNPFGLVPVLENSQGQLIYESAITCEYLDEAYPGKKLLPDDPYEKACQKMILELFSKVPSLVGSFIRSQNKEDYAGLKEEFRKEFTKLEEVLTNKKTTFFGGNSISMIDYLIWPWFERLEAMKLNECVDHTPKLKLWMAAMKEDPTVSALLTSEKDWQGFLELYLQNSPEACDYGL
UniProt Q00403, whole entry, looked up: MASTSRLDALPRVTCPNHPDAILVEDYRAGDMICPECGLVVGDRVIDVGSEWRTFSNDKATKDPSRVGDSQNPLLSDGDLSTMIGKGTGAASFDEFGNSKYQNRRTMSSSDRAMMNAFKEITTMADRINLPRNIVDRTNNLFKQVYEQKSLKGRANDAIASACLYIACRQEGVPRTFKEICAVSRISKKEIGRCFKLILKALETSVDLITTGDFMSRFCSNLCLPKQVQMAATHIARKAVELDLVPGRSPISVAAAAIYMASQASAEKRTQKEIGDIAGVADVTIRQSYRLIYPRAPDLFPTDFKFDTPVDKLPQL
UniProt P06396, whole entry, looked up: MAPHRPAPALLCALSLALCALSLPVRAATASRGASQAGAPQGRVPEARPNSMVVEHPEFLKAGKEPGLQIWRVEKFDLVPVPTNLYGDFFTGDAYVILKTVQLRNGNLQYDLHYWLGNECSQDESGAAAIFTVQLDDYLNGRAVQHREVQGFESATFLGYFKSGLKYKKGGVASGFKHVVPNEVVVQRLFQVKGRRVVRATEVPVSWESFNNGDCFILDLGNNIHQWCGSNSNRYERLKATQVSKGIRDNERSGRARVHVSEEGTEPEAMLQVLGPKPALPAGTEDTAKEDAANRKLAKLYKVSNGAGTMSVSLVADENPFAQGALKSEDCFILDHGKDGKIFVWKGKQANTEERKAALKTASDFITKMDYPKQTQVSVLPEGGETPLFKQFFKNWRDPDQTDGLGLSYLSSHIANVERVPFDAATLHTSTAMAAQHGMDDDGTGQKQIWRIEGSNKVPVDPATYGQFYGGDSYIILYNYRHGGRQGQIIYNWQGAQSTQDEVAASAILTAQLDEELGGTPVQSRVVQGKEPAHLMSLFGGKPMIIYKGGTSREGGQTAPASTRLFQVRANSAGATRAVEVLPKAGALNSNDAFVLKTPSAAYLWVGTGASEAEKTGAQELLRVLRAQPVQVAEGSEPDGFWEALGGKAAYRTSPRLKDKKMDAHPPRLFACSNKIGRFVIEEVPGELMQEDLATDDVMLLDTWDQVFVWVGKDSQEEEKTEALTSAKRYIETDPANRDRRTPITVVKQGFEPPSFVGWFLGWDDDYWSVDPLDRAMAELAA
UniProt Q8NG08: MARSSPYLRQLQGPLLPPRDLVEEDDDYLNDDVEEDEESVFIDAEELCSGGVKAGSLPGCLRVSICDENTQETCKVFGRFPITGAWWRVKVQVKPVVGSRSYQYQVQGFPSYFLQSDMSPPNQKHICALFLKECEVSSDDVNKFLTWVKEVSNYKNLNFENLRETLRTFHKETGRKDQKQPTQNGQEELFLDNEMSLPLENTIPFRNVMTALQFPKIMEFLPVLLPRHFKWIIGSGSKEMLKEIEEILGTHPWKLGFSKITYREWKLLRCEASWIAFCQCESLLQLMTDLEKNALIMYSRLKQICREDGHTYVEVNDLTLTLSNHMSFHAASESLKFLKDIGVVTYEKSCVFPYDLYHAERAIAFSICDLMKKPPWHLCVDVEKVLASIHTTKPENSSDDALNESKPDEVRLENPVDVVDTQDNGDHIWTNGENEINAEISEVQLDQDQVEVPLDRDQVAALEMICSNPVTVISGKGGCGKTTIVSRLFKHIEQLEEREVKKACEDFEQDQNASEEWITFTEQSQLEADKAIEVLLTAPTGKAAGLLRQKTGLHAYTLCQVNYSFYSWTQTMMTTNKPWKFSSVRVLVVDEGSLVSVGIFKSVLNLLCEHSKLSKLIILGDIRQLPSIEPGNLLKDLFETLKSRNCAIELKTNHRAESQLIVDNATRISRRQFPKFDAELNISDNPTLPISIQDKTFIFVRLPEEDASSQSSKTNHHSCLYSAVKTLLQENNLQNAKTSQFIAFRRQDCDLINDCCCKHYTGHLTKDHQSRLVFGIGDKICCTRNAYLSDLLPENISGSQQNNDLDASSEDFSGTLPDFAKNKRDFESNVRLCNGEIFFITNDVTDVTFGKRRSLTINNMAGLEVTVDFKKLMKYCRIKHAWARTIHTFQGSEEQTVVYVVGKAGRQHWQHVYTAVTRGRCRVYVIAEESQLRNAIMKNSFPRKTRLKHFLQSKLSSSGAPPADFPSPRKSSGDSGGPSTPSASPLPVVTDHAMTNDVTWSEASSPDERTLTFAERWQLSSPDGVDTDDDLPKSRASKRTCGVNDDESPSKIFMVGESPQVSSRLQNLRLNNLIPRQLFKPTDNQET
UniProt P29083: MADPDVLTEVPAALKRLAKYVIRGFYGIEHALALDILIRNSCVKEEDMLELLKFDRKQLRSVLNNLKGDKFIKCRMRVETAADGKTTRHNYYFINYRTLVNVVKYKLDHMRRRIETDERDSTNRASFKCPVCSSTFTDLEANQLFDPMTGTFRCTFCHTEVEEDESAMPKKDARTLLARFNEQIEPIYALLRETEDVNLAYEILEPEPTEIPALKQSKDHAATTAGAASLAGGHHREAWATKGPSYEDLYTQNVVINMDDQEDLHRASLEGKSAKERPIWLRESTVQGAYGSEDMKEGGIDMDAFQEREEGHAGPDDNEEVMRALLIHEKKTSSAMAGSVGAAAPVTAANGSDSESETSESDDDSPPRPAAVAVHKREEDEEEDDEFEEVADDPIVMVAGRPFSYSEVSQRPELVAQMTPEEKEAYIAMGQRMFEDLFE
UniProt Q9Y5Q8: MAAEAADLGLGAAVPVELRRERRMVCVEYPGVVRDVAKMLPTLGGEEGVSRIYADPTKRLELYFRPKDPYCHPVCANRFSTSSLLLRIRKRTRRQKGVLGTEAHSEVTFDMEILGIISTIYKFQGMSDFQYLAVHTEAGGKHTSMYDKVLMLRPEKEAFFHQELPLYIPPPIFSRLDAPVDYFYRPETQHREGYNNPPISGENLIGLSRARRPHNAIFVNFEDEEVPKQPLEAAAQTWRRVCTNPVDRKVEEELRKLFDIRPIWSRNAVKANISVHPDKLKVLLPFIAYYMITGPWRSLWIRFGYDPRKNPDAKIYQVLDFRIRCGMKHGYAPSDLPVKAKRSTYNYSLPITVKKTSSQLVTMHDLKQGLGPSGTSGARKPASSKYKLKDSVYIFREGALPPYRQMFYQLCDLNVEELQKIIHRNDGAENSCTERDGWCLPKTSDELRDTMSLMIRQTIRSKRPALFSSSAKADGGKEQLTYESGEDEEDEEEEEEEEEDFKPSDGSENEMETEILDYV

compound: Cc1sc2c(c1C)C(c1ccc(Cl)cc1)=N[C@@H](CC(=O)OC(C)(C)C)c1nnc(C)n1-2; experiment: log2 fold change, soluble protein after heating vs DMSO (PISA); higher = thermal stabilisation; K562 cells, 10 uM, 30 min; active = over 0.2 and 3.5 SD of the protein, either way, in both replicates (recomputed)
Method in brief: (§1)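 Aliquots of K562 cells (2×10^6 cells/mL) treated with 10 μM compound for 30 min were heated for 3 min over 48°C-58°C. After pooling and extraction in PBS with 0.5% NP-40 at 4°C, soluble protein from a 21,000xg, 90 min spin was quantified by TMTpro 16plex LC-MS/MS with channel sums equalised. Thermal stability is expressed against control samples, from duplicates, as a log2 fold change.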

Target	log2 fold change
HADHA (UniProt P40939)	inactive: 0.256
HDAC2 (UniProt Q92769)	inactive: -0.002
GTPBP4 (UniProt Q9BZE4)	inactive: 0.179
HAGH (UniProt Q16775)	inactive: -0.02
GTPBP1 (UniProt O00178)	inactive: 0.027
HCCS (UniProt P53701)	inactive: 0.056
HEBP1 (UniProt Q9NRV9)	inactive: -0.013
HERC4 (UniProt Q5GLZ8)	inactive: -0.033
HEATR5B (UniProt Q9P2D3)	inactive: -0.071
HADHB (UniProt P55084)	inactive: 0.363
HADH isoform 2 (UniProt Q16836)	inactive: -0.001
GSTO1 (UniProt P78417)	inactive: -0.013
GSTK1 (UniProt Q9Y2Q3)	inactive: -0.121
HBA1 (UniProt P69905)	inactive: -0.167
GTF2B (UniProt Q00403)	inactive: 0.017
GTF3A (UniProt Q92664)	inactive: -0.072
GSN (UniProt P06396)	inactive: 0.022

Target	log2 fold change
HELB (UniProt Q8NG08)	inactive: -0.009
GTF2E1 (UniProt P29083)	inactive: -0.052
GTF2H2 (UniProt Q13888)	inactive: -0.001
H1-5 (UniProt P16401)	inactive: 0.035
HBD (UniProt P02042)	inactive: -0.017
GTF3C5 isoform 3 (UniProt Q9Y5Q8)	inactive: 0.049
HBG2 (UniProt P69892)	inactive: -0.085
GYPC (UniProt P04921)	inactive: 0.099
GTF2E2 (UniProt P29084)	inactive: -0.058
HAT1 (UniProt O14929)	inactive: -0.101
HECTD3 (UniProt Q5T447)	inactive: 0.102
GSPT1 isoform 3 (UniProt P15170)	inactive: -0.036
HEXB (UniProt P07686)	inactive: -0.008
HAUS1 (UniProt Q96CS2)	inactive: 0.098
H1-2 (UniProt P16403)	inactive: 0.068
GSR (UniProt P00390)	inactive: -0.023

compound: c1ccc([C@@H]2C[C@H]2NC2CCNCC2)cc1; experiment: as above
Method in brief: as §1

Target	log2 fold change
HADHA (UniProt P40939)	inactive: -0.051
HDAC2 (UniProt Q92769)	inactive: 0.111
GTPBP4 (UniProt Q9BZE4)	inactive: 0.014
HAGH (UniProt Q16775)	inactive: -0.088
GTPBP1 (UniProt O00178)	inactive: -0.016
HCCS (UniProt P53701)	inactive: 0.037
HEBP1 (UniProt Q9NRV9)	inactive: 0.006
HERC4 (UniProt Q5GLZ8)	inactive: 0.007
HEATR5B (UniProt Q9P2D3)	inactive: 0.016
HADHB (UniProt P55084)	inactive: -0.085
HADH isoform 2 (UniProt Q16836)	inactive: 0.032
GSTO1 (UniProt P78417)	inactive: 0.007
GSTK1 (UniProt Q9Y2Q3)	inactive: -0.019
HBA1 (UniProt P69905)	inactive: -0.023
GTF2B (UniProt Q00403)	inactive: -0.002
GTF3A (UniProt Q92664)	inactive: -0.071
GSN (UniProt P06396)	inactive: 0.009

Target	log2 fold change
HELB (UniProt Q8NG08)	inactive: -0.076
GTF2E1 (UniProt P29083)	inactive: 0.034
GTF2H2 (UniProt Q13888)	inactive: -0.004
H1-5 (UniProt P16401)	inactive: 0
HBD (UniProt P02042)	inactive: -0.077
GTF3C5 isoform 3 (UniProt Q9Y5Q8)	inactive: -0.159
HBG2 (UniProt P69892)	inactive: -0.019
GYPC (UniProt P04921)	inactive: -0.406
GTF2E2 (UniProt P29084)	inactive: 0.012
HAT1 (UniProt O14929)	inactive: -0.05
HECTD3 (UniProt Q5T447)	inactive: -0.044
GSPT1 isoform 3 (UniProt P15170)	inactive: -0.053
HEXB (UniProt P07686)	inactive: 0.016
HAUS1 (UniProt Q96CS2)	inactive: -0.007
H1-2 (UniProt P16403)	inactive: 0
GSR (UniProt P00390)	inactive: -0.003
